Source: US6406718B1, “Orthorhombic crystalline form of fluticasone propionate and pharmaceutical compositions thereof” (SmithKline Beecham Corporation, priority 1996, dated 2002)

Experiment: Metered dose inhaler drug deposition on can, valve and actuator
Conditions: for Actuator Deposition at the beginning of use / Can Deposition at the beginning of use / Total Drug Deposition at the beginning of use / Valve Deposition at the beginning of use: after actuations 1 & 2; for Can Deposition at the end of use / Total Drug Deposition at the end of use / Valve Deposition at the end of use: after actuations 119 & 120
[1] = Inhaler Type A, listed as sample 20
[2] = Inhaler Type A, listed as sample 18
[3] = Inhaler Type B, listed as sample 21
[4] = Inhaler Type B, listed as sample 22

fluticasone propionate [Sample 20]
Actuator Deposition at the beginning of use [1]: 11 micrograms | Can Deposition at the beginning of use [1]: 0.5 mg | Total Drug Deposition at the beginning of use [1]: 0.8 mg | Valve Deposition at the beginning of use [1]: 0.3 mg

fluticasone propionate [Sample 18]
Actuator Deposition at the beginning of use [2]: 12 micrograms | Can Deposition at the beginning of use [2]: 0.8 mg | Total Drug Deposition at the beginning of use [2]: 1.3 mg | Valve Deposition at the beginning of use [2]: 0.5 mg

fluticasone propionate [Sample 21]
Valve Deposition at the beginning of use (Inhaler Type B): 0.2 mg | Can Deposition at the beginning of use [3]: 0.4 mg | Total Drug Deposition at the beginning of use [3]: 0.6 mg | Can Deposition at the end of use [3]: 0.4 mg | Total Drug Deposition at the end of use [3]: 0.7 mg | Valve Deposition at the end of use [3]: 0.3 mg

fluticasone propionate [Sample 22]
Can Deposition at the beginning of use [4]: 0.3 mg | Total Drug Deposition at the beginning of use [4]: 0.5 mg | Can Deposition at the end of use [4]: 0.3 mg | Total Drug Deposition at the end of use [4]: 0.5 mg | Valve Deposition at the end of use [4]: 0.2 mg
